Data reported in the supplement of paper PMC5836539.
± gives the standard deviation of the averaged measurements. This data set is noisy: repeats of one test often differ as much as different tests do.

Chains of the proteins cited; added tags and fusions are not shown. Lines headed by an entry give the natural chain unless they say otherwise; changes in a name come on top.
UniProt Q9BPX7: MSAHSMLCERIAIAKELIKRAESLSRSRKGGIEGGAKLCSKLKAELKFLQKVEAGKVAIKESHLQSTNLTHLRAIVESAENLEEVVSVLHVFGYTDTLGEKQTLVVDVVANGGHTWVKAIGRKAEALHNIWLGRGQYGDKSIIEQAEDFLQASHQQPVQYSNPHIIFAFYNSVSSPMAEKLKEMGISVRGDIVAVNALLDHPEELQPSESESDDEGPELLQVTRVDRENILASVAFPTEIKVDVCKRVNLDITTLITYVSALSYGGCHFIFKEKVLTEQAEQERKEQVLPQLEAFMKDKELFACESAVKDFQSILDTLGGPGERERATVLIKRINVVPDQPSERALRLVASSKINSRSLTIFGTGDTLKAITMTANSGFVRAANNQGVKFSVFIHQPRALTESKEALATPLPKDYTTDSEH
UniProt P40121: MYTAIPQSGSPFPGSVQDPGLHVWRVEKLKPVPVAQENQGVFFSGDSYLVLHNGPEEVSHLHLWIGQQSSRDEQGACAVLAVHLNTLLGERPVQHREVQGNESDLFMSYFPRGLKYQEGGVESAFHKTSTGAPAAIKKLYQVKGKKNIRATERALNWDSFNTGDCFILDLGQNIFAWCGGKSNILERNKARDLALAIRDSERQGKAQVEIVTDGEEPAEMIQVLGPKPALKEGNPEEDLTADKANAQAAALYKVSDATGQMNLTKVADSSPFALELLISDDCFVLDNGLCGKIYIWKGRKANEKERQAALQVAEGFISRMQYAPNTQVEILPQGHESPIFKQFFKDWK
UniProt Q13185: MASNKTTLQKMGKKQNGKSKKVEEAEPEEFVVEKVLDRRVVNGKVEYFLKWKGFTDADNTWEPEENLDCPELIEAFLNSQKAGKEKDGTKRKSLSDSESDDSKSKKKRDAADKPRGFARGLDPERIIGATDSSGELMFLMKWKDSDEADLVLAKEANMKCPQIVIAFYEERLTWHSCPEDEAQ
UniProt Q9H6F5: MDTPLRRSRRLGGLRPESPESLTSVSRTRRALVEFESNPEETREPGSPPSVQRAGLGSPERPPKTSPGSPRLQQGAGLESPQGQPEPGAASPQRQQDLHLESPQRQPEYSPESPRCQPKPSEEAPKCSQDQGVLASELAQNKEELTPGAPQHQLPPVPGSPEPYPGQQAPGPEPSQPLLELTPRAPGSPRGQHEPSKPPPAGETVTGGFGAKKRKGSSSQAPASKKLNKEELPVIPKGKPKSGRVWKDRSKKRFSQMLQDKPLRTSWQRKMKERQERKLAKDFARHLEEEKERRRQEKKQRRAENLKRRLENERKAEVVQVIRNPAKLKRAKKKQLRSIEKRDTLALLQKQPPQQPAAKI
UniProt O95400: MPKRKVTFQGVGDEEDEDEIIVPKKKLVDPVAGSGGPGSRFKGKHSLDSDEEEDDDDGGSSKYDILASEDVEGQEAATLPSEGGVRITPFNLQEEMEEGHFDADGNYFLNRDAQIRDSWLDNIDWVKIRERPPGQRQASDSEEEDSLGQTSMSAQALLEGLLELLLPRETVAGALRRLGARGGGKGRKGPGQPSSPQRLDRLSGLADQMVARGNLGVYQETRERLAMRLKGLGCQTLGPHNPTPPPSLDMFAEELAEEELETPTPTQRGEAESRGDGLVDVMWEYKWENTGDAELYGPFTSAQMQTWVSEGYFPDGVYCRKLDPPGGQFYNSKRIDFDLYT
UniProt Q5SW79: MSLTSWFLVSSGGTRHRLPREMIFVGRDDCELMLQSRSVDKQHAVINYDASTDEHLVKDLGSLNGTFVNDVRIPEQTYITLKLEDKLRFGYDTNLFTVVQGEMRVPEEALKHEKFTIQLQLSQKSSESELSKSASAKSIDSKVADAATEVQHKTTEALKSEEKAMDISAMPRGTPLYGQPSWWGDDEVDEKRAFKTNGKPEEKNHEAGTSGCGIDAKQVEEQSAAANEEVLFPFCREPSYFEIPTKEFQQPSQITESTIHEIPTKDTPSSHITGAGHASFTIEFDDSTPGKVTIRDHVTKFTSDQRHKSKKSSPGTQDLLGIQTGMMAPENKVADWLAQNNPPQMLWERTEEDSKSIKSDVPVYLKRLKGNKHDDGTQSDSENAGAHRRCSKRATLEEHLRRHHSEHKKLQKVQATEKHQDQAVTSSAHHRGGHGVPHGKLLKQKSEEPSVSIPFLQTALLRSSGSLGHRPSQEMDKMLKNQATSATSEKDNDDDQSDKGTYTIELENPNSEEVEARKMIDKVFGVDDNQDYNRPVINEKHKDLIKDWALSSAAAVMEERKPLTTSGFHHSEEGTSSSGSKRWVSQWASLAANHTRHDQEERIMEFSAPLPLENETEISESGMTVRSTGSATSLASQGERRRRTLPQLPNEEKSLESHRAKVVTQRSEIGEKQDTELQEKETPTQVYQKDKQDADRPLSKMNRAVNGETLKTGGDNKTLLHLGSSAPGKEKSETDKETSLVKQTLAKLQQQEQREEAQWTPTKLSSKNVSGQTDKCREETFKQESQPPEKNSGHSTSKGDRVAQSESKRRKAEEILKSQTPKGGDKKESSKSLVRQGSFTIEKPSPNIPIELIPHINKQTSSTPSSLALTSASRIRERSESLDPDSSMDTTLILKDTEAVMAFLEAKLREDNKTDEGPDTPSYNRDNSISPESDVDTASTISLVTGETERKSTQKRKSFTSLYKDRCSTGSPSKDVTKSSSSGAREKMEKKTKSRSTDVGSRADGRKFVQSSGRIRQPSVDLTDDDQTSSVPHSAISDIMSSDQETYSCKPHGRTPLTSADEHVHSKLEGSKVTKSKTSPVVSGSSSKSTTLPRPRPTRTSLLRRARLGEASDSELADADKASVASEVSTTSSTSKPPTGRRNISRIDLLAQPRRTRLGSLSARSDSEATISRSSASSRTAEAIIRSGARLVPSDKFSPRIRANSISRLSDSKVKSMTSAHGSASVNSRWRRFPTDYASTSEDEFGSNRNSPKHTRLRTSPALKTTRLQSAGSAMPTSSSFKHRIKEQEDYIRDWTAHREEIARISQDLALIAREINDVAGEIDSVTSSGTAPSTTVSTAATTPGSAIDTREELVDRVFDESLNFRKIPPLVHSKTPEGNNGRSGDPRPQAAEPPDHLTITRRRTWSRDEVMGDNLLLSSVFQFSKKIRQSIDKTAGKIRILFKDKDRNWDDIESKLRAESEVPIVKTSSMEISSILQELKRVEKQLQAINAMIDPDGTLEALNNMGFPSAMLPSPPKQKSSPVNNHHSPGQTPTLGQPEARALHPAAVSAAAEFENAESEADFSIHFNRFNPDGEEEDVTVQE
UniProt Q9P2I0: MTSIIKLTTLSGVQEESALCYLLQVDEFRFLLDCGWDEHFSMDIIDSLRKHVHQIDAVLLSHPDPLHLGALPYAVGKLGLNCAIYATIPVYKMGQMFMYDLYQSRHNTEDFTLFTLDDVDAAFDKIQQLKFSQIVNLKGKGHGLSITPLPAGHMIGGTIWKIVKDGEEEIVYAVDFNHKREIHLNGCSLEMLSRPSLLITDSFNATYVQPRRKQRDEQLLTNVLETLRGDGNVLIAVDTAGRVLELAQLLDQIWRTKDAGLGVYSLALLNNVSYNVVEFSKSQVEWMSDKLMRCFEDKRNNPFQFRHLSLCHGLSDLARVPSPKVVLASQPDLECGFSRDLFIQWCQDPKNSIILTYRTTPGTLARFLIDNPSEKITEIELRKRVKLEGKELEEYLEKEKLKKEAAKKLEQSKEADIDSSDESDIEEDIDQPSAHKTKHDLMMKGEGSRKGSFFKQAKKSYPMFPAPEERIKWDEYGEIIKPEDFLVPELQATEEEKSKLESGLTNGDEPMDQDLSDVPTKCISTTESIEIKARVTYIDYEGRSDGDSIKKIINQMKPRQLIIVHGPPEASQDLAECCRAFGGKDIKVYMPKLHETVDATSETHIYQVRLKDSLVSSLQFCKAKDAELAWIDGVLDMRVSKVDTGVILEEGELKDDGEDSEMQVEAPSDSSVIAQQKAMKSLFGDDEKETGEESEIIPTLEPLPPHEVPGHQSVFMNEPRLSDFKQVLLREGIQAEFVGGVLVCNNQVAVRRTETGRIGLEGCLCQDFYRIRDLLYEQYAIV
UniProt P46109: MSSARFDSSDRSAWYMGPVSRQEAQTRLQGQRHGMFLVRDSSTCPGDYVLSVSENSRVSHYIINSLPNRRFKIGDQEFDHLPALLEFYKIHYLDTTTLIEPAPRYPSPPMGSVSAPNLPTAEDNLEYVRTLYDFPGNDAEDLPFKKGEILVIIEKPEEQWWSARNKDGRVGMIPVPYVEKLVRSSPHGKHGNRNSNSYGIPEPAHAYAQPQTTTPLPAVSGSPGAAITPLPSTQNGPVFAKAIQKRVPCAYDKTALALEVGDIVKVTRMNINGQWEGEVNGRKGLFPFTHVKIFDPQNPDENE
UniProt Q9NRF8: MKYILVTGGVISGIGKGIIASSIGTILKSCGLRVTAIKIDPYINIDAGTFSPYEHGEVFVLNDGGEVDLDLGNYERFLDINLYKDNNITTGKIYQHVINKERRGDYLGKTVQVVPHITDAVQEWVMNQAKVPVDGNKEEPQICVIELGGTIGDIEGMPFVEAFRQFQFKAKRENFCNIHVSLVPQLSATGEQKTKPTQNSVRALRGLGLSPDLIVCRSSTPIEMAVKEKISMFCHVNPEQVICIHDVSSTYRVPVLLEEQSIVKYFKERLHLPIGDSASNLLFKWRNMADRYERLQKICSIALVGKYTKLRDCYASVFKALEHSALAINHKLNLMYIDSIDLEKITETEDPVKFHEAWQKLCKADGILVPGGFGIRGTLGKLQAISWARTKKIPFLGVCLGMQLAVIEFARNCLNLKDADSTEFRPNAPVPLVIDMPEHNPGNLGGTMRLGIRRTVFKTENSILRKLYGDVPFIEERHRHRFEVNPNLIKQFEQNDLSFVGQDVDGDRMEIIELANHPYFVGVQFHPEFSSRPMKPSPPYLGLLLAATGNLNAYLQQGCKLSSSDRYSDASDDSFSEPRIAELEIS
UniProt Q16643: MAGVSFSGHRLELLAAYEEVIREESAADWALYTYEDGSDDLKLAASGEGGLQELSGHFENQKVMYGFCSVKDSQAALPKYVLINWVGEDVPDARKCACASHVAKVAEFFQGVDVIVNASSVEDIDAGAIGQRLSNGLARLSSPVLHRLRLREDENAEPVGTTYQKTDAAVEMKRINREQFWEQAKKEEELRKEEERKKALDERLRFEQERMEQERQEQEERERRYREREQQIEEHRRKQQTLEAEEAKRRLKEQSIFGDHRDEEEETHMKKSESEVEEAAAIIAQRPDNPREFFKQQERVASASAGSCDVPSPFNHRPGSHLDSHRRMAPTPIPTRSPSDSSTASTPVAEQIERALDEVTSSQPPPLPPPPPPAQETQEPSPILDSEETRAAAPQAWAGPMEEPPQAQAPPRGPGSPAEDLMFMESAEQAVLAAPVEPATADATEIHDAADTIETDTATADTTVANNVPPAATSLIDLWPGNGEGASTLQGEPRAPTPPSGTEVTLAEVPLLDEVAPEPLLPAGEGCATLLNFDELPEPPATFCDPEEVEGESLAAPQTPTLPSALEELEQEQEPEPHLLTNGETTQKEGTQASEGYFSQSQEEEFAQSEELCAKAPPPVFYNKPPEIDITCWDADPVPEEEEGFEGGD
UniProt Q86XP3: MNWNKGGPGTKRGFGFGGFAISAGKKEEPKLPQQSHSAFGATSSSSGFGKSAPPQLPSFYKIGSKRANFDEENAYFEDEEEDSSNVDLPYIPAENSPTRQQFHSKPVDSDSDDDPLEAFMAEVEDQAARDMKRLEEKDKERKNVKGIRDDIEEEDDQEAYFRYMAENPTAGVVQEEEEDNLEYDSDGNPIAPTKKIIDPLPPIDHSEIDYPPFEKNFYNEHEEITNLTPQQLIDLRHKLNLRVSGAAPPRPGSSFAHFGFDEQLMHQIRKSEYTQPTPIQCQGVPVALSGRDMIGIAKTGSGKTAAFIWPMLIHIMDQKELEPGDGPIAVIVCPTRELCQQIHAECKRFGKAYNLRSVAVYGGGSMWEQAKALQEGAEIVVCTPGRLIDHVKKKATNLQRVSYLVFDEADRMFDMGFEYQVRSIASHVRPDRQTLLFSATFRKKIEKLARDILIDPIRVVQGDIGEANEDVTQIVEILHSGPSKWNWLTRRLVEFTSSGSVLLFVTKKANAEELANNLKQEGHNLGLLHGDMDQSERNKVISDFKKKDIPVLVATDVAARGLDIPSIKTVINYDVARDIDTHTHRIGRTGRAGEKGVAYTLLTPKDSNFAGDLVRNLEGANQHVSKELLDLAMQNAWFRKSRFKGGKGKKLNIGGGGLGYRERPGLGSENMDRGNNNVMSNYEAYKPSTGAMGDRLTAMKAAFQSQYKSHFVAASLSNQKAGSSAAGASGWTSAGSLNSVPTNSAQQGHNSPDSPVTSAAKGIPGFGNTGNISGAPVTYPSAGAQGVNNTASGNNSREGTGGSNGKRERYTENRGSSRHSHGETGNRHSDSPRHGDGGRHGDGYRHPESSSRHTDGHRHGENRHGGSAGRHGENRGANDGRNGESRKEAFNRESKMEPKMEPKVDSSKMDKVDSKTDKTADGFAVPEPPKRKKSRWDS

compound: CC[C@@H](C)Nc1cc(C(=O)N[C@H]2C[C@H]3CC[C@@H](C2)N3c2ccc(C(=O)C3CC3)cn2)c(C)cc1C(N)=O [XL888]; test: phosphopeptide melting temperature shift (XL888 minus DMSO); higher = stabilised by drug treatment; conditions: 100 µM; treatment time 2 h; layout: intact cells; SK-Mel 28
Experimental: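 Phospho-TPP in intact SK-Mel 28 cells treated with 100 uM XL888 or DMSO for 2 h, heated at 10 temperatures (37-67 C) for 3 min, soluble fraction TMT10plex-labelled and TiO2 phospho-enriched. Melting curves were fitted per phosphopeptide; the value is the melting point difference (drug minus vehicle) in each of two biological replicates.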

Q: Which “phosphopeptide melting temperature shift” value does the source give for “C5orf30 phosphosite_167 (phosphosite position: 167) (UniProt Q96GV9)” here?
A: 2.77 ± 0.26 °C

Q: “C7orf25 phosphosite_208 (phosphosite position: 208) (UniProt Q9BPX7)” was tested. Which “phosphopeptide melting temperature shift” value did it give?
A: 0.658 °C

Q: How did the “phosphopeptide melting temperature shift” value turn out when “C7orf25 phosphosite_210 (phosphosite position: 210) (UniProt Q9BPX7)” was run?
A: 0.658 °C

Q: For “C7orf25 phosphosite_212 (phosphosite position: 212) (UniProt Q9BPX7)”, which “phosphopeptide melting temperature shift” value is on record?
A: 0.658 °C

Q: Which “phosphopeptide melting temperature shift” value does the source give for “CALD1 phosphosite_202 (phosphosite position: 202) (UniProt Q05682)” here?
A: -0.359 °C

Q: For “CALU phosphosite_44 (phosphosite position: 44) (UniProt O43852)”, which “phosphopeptide melting temperature shift” value is on record?
A: 1.07 °C

Q: With “CAPG phosphosite_212 (phosphosite position: 212) (UniProt P40121)” as the target, how does the “phosphopeptide melting temperature shift” value read?
A: -0.795 °C

Q: “CAPZA1 phosphosite_63 (phosphosite position: 63) (UniProt P52907)” was tested. Which “phosphopeptide melting temperature shift” value did it give?
A: -1.76 °C

Q: Which “phosphopeptide melting temperature shift” value does the source give for “CARHSP1 phosphosite_32 (phosphosite position: 32) (UniProt Q9Y2V2)” here?
A: 0.874 ± 2 °C

Q: Which “phosphopeptide melting temperature shift” value does the source give for “CBL phosphosite_452 (phosphosite position: 452) (UniProt P22681)” here?
A: 1.06 °C

Q: How did the “phosphopeptide melting temperature shift” value turn out when “CBX3 phosphosite_93 (phosphosite position: 93) (UniProt Q13185)” was run?
A: 0.434 ± 0.56 °C

Q: “CBX3 phosphosite_97 (phosphosite position: 97) (UniProt Q13185)” was tested. Which “phosphopeptide melting temperature shift” value did it give?
A: 0.404 ± 0.19 °C

Q: “CBX3 phosphosite_99 (phosphosite position: 99) (UniProt Q13185)” was tested. Which “phosphopeptide melting temperature shift” value did it give?
A: 0.787 ± 0.55 °C

Q: With “CBX3 phosphosite_176 (phosphosite position: 176) (UniProt Q13185)” as the target, how does the “phosphopeptide melting temperature shift” value read?
A: 3.98 °C

Q: With “CCDC9 phosphosite_521 (phosphosite position: 521) (UniProt Q9Y3X0)” as the target, how does the “phosphopeptide melting temperature shift” value read?
A: 0.12 °C

Q: “CCDC86 phosphosite_18 (phosphosite position: 18) (UniProt Q9H6F5)” was tested. Which “phosphopeptide melting temperature shift” value did it give?
A: -1.33 °C

Q: For “CCDC86 phosphosite_91 (phosphosite position: 91) (UniProt Q9H6F5)”, which “phosphopeptide melting temperature shift” value is on record?
A: -0.665 °C

Q: For “CCDC86 phosphosite_102 (phosphosite position: 102) (UniProt Q9H6F5)”, which “phosphopeptide melting temperature shift” value is on record?
A: 2.99 °C

Q: How did the “phosphopeptide melting temperature shift” value turn out when “CCDC86 phosphosite_113 (phosphosite position: 113) (UniProt Q9H6F5)” was run?
A: 2.29 °C

Q: How did the “phosphopeptide melting temperature shift” value turn out when “CCDC97 phosphosite_337 (phosphosite position: 337) (UniProt Q96F63)” was run?
A: -1.71 °C

Q: Which “phosphopeptide melting temperature shift” value does the source give for “CCNH phosphosite_315 (phosphosite position: 315) (UniProt P51946)” here?
A: 3.43 °C

Q: Which “phosphopeptide melting temperature shift” value does the source give for “CD2BP2 phosphosite_195 (phosphosite position: 195) (UniProt O95400)” here?
A: -1.8 °C

Q: With “CEBPZ phosphosite_629 (phosphosite position: 629) (UniProt Q03701)” as the target, how does the “phosphopeptide melting temperature shift” value read?
A: 1.76 ± 1.4 °C

Q: “CEP170 phosphosite_359 (phosphosite position: 359) (UniProt Q5SW79)” was tested. Which “phosphopeptide melting temperature shift” value did it give?
A: 0.0461 ± 1 °C

Q: With “CEP170 phosphosite_501 (phosphosite position: 501) (UniProt Q5SW79)” as the target, how does the “phosphopeptide melting temperature shift” value read?
A: 0.78 °C

Q: “CEP170 phosphosite_930 (phosphosite position: 930) (UniProt Q5SW79)” was tested. Which “phosphopeptide melting temperature shift” value did it give?
A: -1.71 °C

Q: Which “phosphopeptide melting temperature shift” value does the source give for “CEP170 phosphosite_933 (phosphosite position: 933) (UniProt Q5SW79)” here?
A: -1.71 °C

Q: “CEP170 phosphosite_1019 (phosphosite position: 1019) (UniProt Q5SW79)” was tested. Which “phosphopeptide melting temperature shift” value did it give?
A: -3.6 °C

Q: With “CEP170 phosphosite_1529 (phosphosite position: 1529) (UniProt Q5SW79)” as the target, how does the “phosphopeptide melting temperature shift” value read?
A: 1.68 ± 1.7 °C

Q: How did the “phosphopeptide melting temperature shift” value turn out when “CHD4 phosphosite_515 (phosphosite position: 515) (UniProt Q14839)” was run?
A: 0.505 ± 0.15 °C

Q: With “CHD4 phosphosite_531 (phosphosite position: 531) (UniProt Q14839)” as the target, how does the “phosphopeptide melting temperature shift” value read?
A: 0.724 °C

Q: For “CLASP2 phosphosite_596 (phosphosite position: 596) (UniProt O75122)”, which “phosphopeptide melting temperature shift” value is on record?
A: 1.79 ± 1.3 °C

Q: With “COPA phosphosite_173 (phosphosite position: 173) (UniProt P53621)” as the target, how does the “phosphopeptide melting temperature shift” value read?
A: -0.0275 °C

Q: For “CPSF2 phosphosite_419 (phosphosite position: 419) (UniProt Q9P2I0)”, which “phosphopeptide melting temperature shift” value is on record?
A: 1.13 °C

Q: Which “phosphopeptide melting temperature shift” value does the source give for “CPSF2 phosphosite_420 (phosphosite position: 420) (UniProt Q9P2I0)” here?
A: 1.13 °C

Q: For “CPSF2 phosphosite_423 (phosphosite position: 423) (UniProt Q9P2I0)”, which “phosphopeptide melting temperature shift” value is on record?
A: 1.13 °C

Q: How did the “phosphopeptide melting temperature shift” value turn out when “CRKL phosphosite_42 (phosphosite position: 42) (UniProt P46109)” was run?
A: -1.04 ± 0.52 °C

Q: “CROCC phosphosite_512 (phosphosite position: 512) (UniProt Q5TZA2)” was tested. Which “phosphopeptide melting temperature shift” value did it give?
A: -1.15 ± 1.2 °C

Q: With “CRTC2 phosphosite_70 (phosphosite position: 70) (UniProt Q53ET0)” as the target, how does the “phosphopeptide melting temperature shift” value read?
A: -0.902 ± 1.6 °C

Q: For “CSTF3 phosphosite_691 (phosphosite position: 691) (UniProt Q12996)”, which “phosphopeptide melting temperature shift” value is on record?
A: 2.45 °C

Q: Which “phosphopeptide melting temperature shift” value does the source give for “CTDP1 phosphosite_872 (phosphosite position: 872) (UniProt Q9Y5B0)” here?
A: -0.17 °C

Q: Which “phosphopeptide melting temperature shift” value does the source give for “CTPS2 phosphosite_568 (phosphosite position: 568) (UniProt Q9NRF8)” here?
A: 0.337 ± 1.2 °C

Q: How did the “phosphopeptide melting temperature shift” value turn out when “CTPS2 phosphosite_571 (phosphosite position: 571) (UniProt Q9NRF8)” was run?
A: -4.07 °C

Q: Which “phosphopeptide melting temperature shift” value does the source give for “CTR9 phosphosite_970 (phosphosite position: 970) (UniProt Q6PD62)” here?
A: 0.94 °C

Q: How did the “phosphopeptide melting temperature shift” value turn out when “CTR9 phosphosite_1081 (phosphosite position: 1081) (UniProt Q6PD62)” was run?
A: 0.91 °C

Q: For “CTR9 phosphosite_1085 (phosphosite position: 1085) (UniProt Q6PD62)”, which “phosphopeptide melting temperature shift” value is on record?
A: 0.0813 °C

Q: With “CTR9 phosphosite_1087 (phosphosite position: 1087) (UniProt Q6PD62)” as the target, how does the “phosphopeptide melting temperature shift” value read?
A: 1.05 °C

Q: “CTTNBP2NL phosphosite_481 (phosphosite position: 481) (UniProt Q9P2B4)” was tested. Which “phosphopeptide melting temperature shift” value did it give?
A: -3.31 °C

Q: Which “phosphopeptide melting temperature shift” value does the source give for “DBN1 phosphosite_381 (phosphosite position: 381) (UniProt Q16643)” here?
A: -1.38 ± 0.54 °C

Q: For “DCK phosphosite_74 (phosphosite position: 74) (UniProt P27707)”, which “phosphopeptide melting temperature shift” value is on record?
A: 1.22 °C

Q: “DDX42 phosphosite_109 (phosphosite position: 109) (UniProt Q86XP3)” was tested. Which “phosphopeptide melting temperature shift” value did it give?
A: 0.4 ± 0.64 °C

Q: For “DDX42 phosphosite_111 (phosphosite position: 111) (UniProt Q86XP3)”, which “phosphopeptide melting temperature shift” value is on record?
A: 0.4 ± 0.64 °C

Q: For “DDX42 phosphosite_185 (phosphosite position: 185) (UniProt Q86XP3)”, which “phosphopeptide melting temperature shift” value is on record?
A: 0.351 ± 1.9 °C
